Some of the results follow.
Assays:
Assay in all cases: log2 fold change, soluble protein after heating vs DMSO (PISA); higher = thermal stabilisation; K562 cells, 10 uM, 30 min; active = over 0.2 and 3.5 SD of the protein, either way, in both replicates (recomputed)
bafetinib = compound: Cc1ccc(NC(=O)c2ccc(CN3CC[C@H](N(C)C)C3)c(C(F)(F)F)c2)cc1Nc1nccc(-c2cncnc2)n1 [bafetinib]
Procedure, shortened: (§1)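 K562 cells at 2×10^6 cells/mL were treated for 30 min with 10 μM compound, and aliquots were heated for 3 min over 48°C-58°C before pooling. Extraction used PBS with 0.5% NP-40 at 4°C, and soluble protein was the supernatant after 21,000xg for 90 min, measured by TMTpro 16plex LC-MS/MS with channel sums equalised. Thermal stability values, relative to control samples and from duplicates, are log2 fold changes.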

By UniProt entry, the sequences of proteins in these tests, tags left out. Where a name states a change or a piece, a line headed by the entry shows the natural chain unless it says otherwise.
UniProt P60953, whole entry, looked up: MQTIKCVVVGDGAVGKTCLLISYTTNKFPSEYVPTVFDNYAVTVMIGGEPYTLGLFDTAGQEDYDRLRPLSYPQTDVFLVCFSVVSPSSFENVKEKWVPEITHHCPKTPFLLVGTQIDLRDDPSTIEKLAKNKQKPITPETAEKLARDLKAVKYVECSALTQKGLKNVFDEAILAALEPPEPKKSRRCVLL
UniProt O75794: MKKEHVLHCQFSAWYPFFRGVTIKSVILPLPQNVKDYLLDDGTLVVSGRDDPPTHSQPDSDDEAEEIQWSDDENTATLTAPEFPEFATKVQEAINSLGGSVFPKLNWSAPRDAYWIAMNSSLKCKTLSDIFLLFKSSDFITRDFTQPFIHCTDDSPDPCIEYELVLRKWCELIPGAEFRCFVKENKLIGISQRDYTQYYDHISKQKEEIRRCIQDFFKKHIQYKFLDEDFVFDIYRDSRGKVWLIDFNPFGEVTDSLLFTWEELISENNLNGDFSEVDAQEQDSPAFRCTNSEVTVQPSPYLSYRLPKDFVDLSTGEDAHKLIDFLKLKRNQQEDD
UniProt P55212: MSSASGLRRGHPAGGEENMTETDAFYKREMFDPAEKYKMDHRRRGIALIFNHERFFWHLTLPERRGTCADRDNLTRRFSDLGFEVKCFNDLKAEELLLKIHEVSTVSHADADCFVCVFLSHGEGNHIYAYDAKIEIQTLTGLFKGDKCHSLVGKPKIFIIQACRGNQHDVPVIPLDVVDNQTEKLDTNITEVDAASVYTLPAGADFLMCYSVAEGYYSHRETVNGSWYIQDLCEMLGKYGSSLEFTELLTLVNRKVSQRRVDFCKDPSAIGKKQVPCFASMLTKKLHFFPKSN
UniProt Q96MW1: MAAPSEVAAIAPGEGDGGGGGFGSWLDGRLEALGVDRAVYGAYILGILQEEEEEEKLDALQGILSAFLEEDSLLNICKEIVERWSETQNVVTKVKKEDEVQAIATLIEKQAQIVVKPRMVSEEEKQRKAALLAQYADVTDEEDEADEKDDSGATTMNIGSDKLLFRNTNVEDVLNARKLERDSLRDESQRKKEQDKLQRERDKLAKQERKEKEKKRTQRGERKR
UniProt Q13042, whole entry, looked up: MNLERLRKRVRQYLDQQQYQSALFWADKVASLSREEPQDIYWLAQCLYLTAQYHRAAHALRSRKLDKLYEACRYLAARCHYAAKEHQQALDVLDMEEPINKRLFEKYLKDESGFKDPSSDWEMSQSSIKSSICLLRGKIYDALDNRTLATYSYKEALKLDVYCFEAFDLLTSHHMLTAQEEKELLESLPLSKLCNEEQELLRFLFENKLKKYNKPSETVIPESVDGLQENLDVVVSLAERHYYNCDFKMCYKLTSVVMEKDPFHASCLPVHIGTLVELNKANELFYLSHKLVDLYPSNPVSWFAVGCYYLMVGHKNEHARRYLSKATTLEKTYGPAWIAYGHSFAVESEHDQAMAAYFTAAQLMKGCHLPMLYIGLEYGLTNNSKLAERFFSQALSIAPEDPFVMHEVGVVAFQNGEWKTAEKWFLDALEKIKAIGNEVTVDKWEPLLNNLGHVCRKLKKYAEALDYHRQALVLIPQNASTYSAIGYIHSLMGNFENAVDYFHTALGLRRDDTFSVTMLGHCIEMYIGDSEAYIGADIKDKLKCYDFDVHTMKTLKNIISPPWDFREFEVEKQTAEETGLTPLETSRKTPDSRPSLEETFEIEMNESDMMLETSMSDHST
UniProt Q6PII3: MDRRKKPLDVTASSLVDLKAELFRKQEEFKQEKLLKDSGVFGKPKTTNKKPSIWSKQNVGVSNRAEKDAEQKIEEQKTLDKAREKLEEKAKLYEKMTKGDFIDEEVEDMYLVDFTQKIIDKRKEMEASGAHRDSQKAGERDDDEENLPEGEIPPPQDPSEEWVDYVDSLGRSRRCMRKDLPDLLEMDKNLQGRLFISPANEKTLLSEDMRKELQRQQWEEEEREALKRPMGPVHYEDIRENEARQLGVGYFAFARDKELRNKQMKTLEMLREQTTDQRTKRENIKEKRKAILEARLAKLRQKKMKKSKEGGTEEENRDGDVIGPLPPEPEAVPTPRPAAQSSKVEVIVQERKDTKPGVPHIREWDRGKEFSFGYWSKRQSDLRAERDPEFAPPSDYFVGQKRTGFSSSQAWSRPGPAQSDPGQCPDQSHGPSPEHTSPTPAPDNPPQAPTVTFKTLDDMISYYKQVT
UniProt P78371: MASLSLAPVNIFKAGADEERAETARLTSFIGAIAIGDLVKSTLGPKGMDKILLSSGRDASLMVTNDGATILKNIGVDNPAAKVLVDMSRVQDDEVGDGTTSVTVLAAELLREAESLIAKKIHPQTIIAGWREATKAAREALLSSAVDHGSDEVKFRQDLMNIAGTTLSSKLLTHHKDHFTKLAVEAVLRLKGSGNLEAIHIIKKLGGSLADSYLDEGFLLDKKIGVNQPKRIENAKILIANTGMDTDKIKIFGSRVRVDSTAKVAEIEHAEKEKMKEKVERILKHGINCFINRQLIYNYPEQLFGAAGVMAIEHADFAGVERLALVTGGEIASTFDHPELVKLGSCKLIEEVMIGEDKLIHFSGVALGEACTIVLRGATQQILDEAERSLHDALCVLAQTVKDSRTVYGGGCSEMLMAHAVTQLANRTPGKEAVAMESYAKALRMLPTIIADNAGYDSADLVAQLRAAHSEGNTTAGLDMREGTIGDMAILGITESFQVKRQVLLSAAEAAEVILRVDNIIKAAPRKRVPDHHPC
UniProt P13987: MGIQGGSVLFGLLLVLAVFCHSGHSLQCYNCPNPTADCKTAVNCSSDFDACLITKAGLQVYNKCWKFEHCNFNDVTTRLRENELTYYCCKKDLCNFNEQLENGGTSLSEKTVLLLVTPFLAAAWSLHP
UniProt P45973, whole entry, looked up: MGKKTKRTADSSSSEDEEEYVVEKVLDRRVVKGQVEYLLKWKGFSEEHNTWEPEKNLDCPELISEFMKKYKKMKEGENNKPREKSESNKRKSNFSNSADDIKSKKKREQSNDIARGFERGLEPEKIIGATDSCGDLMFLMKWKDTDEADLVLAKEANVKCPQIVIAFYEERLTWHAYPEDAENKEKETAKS
UniProt P51946: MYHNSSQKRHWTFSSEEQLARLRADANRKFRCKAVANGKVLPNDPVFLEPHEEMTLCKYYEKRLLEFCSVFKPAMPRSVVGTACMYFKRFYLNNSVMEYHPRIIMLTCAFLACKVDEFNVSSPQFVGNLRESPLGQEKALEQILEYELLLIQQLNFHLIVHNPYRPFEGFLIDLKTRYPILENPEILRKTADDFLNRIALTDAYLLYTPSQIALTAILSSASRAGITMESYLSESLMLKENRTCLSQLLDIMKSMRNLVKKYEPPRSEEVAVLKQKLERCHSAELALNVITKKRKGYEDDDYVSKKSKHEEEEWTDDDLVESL
UniProt Q96BQ5: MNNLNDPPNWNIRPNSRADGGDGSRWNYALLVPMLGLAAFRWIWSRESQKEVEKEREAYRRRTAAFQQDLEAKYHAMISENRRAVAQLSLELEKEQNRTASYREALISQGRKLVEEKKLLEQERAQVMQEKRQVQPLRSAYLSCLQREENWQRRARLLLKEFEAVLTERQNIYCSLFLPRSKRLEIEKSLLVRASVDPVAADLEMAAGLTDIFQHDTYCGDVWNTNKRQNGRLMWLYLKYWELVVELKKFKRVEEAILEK
UniProt P48643, whole entry, looked up: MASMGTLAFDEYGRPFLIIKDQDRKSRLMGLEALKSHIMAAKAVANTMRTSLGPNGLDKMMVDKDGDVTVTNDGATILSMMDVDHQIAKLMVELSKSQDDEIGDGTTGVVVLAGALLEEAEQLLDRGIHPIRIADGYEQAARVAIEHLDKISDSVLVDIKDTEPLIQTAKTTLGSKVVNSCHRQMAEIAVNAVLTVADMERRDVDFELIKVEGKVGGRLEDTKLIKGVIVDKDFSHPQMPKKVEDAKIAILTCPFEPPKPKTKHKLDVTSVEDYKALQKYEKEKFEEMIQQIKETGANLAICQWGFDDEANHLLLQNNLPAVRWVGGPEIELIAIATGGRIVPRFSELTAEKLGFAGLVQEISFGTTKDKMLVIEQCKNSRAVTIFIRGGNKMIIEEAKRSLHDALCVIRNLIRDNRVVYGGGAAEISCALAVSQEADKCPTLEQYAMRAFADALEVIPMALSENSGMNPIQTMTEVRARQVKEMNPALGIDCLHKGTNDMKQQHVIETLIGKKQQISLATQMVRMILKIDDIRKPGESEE
UniProt Q6P4E1: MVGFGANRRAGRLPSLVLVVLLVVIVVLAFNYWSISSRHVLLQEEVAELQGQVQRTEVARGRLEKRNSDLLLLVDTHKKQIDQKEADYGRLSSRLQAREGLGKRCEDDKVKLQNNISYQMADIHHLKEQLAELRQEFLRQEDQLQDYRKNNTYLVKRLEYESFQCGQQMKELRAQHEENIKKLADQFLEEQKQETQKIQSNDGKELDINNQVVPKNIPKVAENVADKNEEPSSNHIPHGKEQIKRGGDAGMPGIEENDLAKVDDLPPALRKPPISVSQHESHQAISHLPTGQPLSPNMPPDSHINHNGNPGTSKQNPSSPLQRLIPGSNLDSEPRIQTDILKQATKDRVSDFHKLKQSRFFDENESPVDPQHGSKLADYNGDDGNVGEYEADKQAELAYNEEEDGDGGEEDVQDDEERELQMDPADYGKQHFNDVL
UniProt Q9H6E4: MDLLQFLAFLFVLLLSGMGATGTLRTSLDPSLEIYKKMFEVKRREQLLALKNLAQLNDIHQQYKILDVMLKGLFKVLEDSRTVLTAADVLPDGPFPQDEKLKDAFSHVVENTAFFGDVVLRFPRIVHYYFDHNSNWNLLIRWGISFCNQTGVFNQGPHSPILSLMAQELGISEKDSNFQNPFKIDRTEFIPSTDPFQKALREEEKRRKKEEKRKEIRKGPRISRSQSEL
UniProt Q96A33: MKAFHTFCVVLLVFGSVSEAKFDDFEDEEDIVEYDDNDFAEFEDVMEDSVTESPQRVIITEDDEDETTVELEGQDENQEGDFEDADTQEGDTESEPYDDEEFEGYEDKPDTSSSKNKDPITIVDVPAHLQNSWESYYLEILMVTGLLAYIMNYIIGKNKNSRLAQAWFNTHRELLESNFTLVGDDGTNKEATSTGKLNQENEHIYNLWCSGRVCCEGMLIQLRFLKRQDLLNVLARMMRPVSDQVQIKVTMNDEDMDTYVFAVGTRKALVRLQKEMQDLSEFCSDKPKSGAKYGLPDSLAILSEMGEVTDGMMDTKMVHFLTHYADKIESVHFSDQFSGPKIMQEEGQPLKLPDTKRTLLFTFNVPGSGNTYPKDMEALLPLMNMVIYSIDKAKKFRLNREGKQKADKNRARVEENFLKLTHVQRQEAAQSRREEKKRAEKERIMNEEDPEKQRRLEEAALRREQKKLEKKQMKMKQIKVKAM

[1] = compound: Cc1cccc(CC(=O)N2CCc3c2ccc(-c2cn(C)c4ncnc(N)c24)c3F)n1
Procedure, shortened: as §1

nilotinib = compound: Cc1cn(-c2cc(NC(=O)c3ccc(C)c(Nc4nccc(-c5cccnc5)n4)c3)cc(C(F)(F)F)c2)cn1 [nilotinib]
Procedure, shortened: as §1

[2] = compound: Cc1nc(Nc2n[nH]c3c2CN(C(=O)N[C@H](CN(C)C)c2ccccc2)C3(C)C)c2sccc2n1
Procedure, shortened: as §1

dasatinib = compound: Cc1nc(Nc2ncc(C(=O)Nc3c(C)cccc3Cl)s2)cc(N2CCN(CCO)CC2)n1 [dasatinib]
Procedure, shortened: as §1

[3] = compound: Cc1ncc(-c2ccnc(Nc3ccc(S(C)(=O)=O)cc3)n2)n1C(C)C
Procedure, shortened: as §1

[4] = compound: Cn1cc(-c2ccc3c(c2)CCN3C(=O)Cc2cccc(C(F)(F)F)c2)c2c(N)ncnc21
Procedure, shortened: as §1

[5] = compound: Cn1cc(-c2ccc3nnc(C(F)(F)c4ccc5ncccc5c4)n3n2)cn1
Procedure, shortened: as §1

tipifarnib = compound: Cn1cncc1[C@@](N)(c1ccc(Cl)cc1)c1ccc2c(c1)c(-c1cccc(Cl)c1)cc(=O)n2C [tipifarnib]
Procedure, shortened: as §1

mubritinib = compound: FC(F)(F)c1ccc(/C=C/c2nc(COc3ccc(CCCCn4ccnn4)cc3)co2)cc1 [mubritinib]
Procedure, shortened: as §1

[6] = compound: NC(=O)Nc1cc(-c2cccc(F)c2)sc1C(=O)N[C@H]1CCCNC1
Procedure, shortened: as §1

[7] = compound: NC(=O)c1cnc(N[C@@H]2CCCC[C@@H]2N)nc1Nc1cccc(-n2nccn2)c1
Procedure, shortened: as §1

[8] = compound: NC1(c2ccc(-c3nc4ccn5c(=O)[nH]nc5c4cc3-c3ccccc3)cc2)CCC1
Procedure, shortened: as §1

[9] = compound: NCC(=O)Nc1ccc(-n2nc(C(F)(F)F)cc2-c2ccc3c(ccc4ccccc43)c2)cc1
Procedure, shortened: as §1

entinostat = compound: Nc1ccccc1NC(=O)c1ccc(CNC(=O)OCc2cccnc2)cc1 [entinostat]
Procedure, shortened: as §1

vorinostat = compound: O=C(CCCCCCC(=O)Nc1ccccc1)NO [vorinostat]
Procedure, shortened: as §1

citarinostat = compound: O=C(CCCCCCNC(=O)c1cnc(N(c2ccccc2)c2ccccc2Cl)nc1)NO [citarinostat]
Procedure, shortened: as §1

silmitasertib = compound: O=C(O)c1ccc2c(c1)nc(Nc1cccc(Cl)c1)c1ccncc12 [silmitasertib]
Procedure, shortened: as §1

[10] = compound: O=C1NC(=O)C(c2cnc3ccccn23)=C1c1cn2c3c(cc(F)cc13)CN(C(=O)N1CCCCC1)CC2
Procedure, shortened: as §1

[11] = compound: c1cc(OCCN2CCCCC2)cc(-c2n[nH]c3ccc(-c4nnc[nH]4)cc23)c1
Procedure, shortened: as §1

Measured: log2 fold change

CDC42 (UniProt P60953)
inactive: bafetinib -0.047 | [1] 0.004 | nilotinib 0.118 | [2] 0.005 | dasatinib -0.071 | [3] 0.008 | [4] 0.102 | [5] -0.015 | tipifarnib -0.097 | mubritinib -0.029 | [6] 0.088 | [7] 0.135 | [8] 0.161 | [9] 0.155 | entinostat -0.022 | vorinostat -0.041 | citarinostat 0 | silmitasertib -0.111 | [10] -0.095 | [11] 0.193

CDC123 (UniProt O75794)
inactive: bafetinib 0.015 | [1] -0.013 | nilotinib -0.084 | [2] 0.079 | dasatinib -0.032 | [3] 0.018 | [4] 0.029 | [5] -0.04 | tipifarnib -0.031 | mubritinib -0.006 | [6] -0.029 | [7] 0.045 | [8] -0.077 | [9] -0.01 | entinostat 0.026 | vorinostat 0.032 | citarinostat 0.045 | silmitasertib -0.048 | [10] 0.011 | [11] -0.056

CASP6 (UniProt P55212)
inactive: bafetinib -0.003 | [1] 0.004 | nilotinib 0.016 | [2] 0.015 | dasatinib 0.033 | [3] -0.026 | [4] 0.035 | [5] -0.034 | tipifarnib -0.019 | mubritinib 0.03 | [6] 0.01 | [7] 0.047 | [8] -0.008 | [9] 0.035 | entinostat 0 | vorinostat -0.044 | citarinostat 0 | silmitasertib -0.02 | [10] -0.018 | [11] 0.004

CCDC43 (UniProt Q96MW1)
inactive: bafetinib -0.029 | [1] 0.036 | nilotinib -0.005 | [2] -0.039 | dasatinib 0.039 | [3] -0.047 | [4] 0.027 | [5] 0.002 | tipifarnib -0.019 | mubritinib 0.047 | [6] -0.016 | [7] -0.01 | [8] -0.077 | [9] 0.006 | entinostat -0.006 | vorinostat 0.015 | citarinostat -0.002 | silmitasertib 0.007 | [10] 0.018 | [11] -0.045

CDC16 (UniProt Q13042)
inactive: bafetinib 0.03 | [1] 0.094 | nilotinib -0.022 | [2] 0.005 | dasatinib -0.024 | [3] -0.043 | [4] -0.065 | [5] -0.047 | tipifarnib 0.042 | mubritinib -0.018 | [6] 0.028 | [7] -0.045 | [8] -0.056 | [9] 0.012 | entinostat 0.013 | vorinostat -0.008 | citarinostat 0.039 | silmitasertib 0.045 | [10] 0.022 | [11] -0.061

CCDC174 (UniProt Q6PII3)
inactive: bafetinib -0.092 | [1] -0.016 | nilotinib -0.001 | [2] -0.008 | dasatinib 0.007 | [3] 0 | [4] -0.07 | [5] -0.048 | tipifarnib 0.058 | mubritinib -0.002 | [6] 0.042 | [7] -0.007 | [8] 0.014 | [9] 0.004 | entinostat -0.009 | vorinostat 0.002 | citarinostat -0.07 | silmitasertib -0.012 | [10] -0.049 | [11] 0.023

Two entries picked at random from those above:
CASP6 (UniProt P55212)
inactive: bafetinib -0.003 | [1] 0.004 | nilotinib 0.016 | [2] 0.015 | dasatinib 0.033 | [3] -0.026 | [4] 0.035 | [5] -0.034 | tipifarnib -0.019 | mubritinib 0.03 | [6] 0.01 | [7] 0.047 | [8] -0.008 | [9] 0.035 | entinostat 0 | vorinostat -0.044 | citarinostat 0 | silmitasertib -0.02 | [10] -0.018 | [11] 0.004

CDC123 (UniProt O75794)
inactive: bafetinib 0.015 | [1] -0.013 | nilotinib -0.084 | [2] 0.079 | dasatinib -0.032 | [3] 0.018 | [4] 0.029 | [5] -0.04 | tipifarnib -0.031 | mubritinib -0.006 | [6] -0.029 | [7] 0.045 | [8] -0.077 | [9] -0.01 | entinostat 0.026 | vorinostat 0.032 | citarinostat 0.045 | silmitasertib -0.048 | [10] 0.011 | [11] -0.056

(listing goes on)

CCT2 (UniProt P78371)
inactive: bafetinib 0.027 | [1] 0.021 | nilotinib -0.053 | [2] 0.016 | dasatinib -0.002 | [3] 0.004 | [4] -0.002 | [5] -0.006 | tipifarnib 0.02 | mubritinib 0.014 | [6] 0.027 | [7] 0.018 | [8] -0.005 | [9] 0.013 | entinostat -0.004 | vorinostat 0.021 | citarinostat 0.01 | silmitasertib -0.014 | [10] 0.033 | [11] -0.032

CD59 isoform 2 (UniProt P13987)
inactive: bafetinib 0.057 | [1] -0.012 | nilotinib 0.158 | [2] 0.008 | dasatinib 0.155 | [3] -0.11 | [4] 0 | [5] -0.028 | tipifarnib 0.032 | mubritinib -0.03 | [6] -0.087 | [7] 0.112 | [8] 0.112 | [9] 0.142 | entinostat -0.039 | vorinostat -0.019 | citarinostat 0.007 | silmitasertib 0.04 | [10] -0.119 | [11] -0.044

CBX5 (UniProt P45973)
inactive: bafetinib -0.019 | [1] 0.01 | nilotinib 0.002 | [2] -0.138 | dasatinib -0.069 | [3] -0.064 | [4] -0.01 | [5] -0.02 | tipifarnib -0.048 | mubritinib 0.062 | [6] -0.066 | [7] -0.027 | [8] -0.025 | [9] -0.106 | entinostat 0.025 | vorinostat 0.113 | citarinostat 0.041 | silmitasertib -0.016 | [10] -0.073 | [11] -0.021

CCNH (UniProt P51946)
inactive: bafetinib -0.064 | [1] -0.01 | nilotinib -0.008 | [2] 0.113 | dasatinib 0.023 | [3] -0.056 | [4] -0.005 | [5] 0.005 | tipifarnib 0.051 | mubritinib 0.08 | [6] -0.043 | [7] -0.009 | [8] 0.024 | [9] -0.02 | entinostat -0.006 | vorinostat -0.028 | citarinostat 0.015 | silmitasertib 0.02 | [10] -0.083 | [11] -0.027

CBL (UniProt P22681)
inactive: bafetinib 0.009 | [1] 0.018 | nilotinib 0.063 | [2] -0.027 | dasatinib 0.008 | [3] 0.014 | [4] 0.054 | [5] -0.009 | tipifarnib -0.022 | mubritinib 0.048 | [6] -0.023 | [7] 0.026 | [8] 0.003 | [9] -0.053 | entinostat -0.031 | vorinostat -0.04 | citarinostat 0.025 | silmitasertib -0.033 | [10] -0.054 | [11] -0.007

CCDC127 (UniProt Q96BQ5)
inactive: bafetinib 0.024 | [1] -0.028 | nilotinib 0.058 | [2] -0.035 | dasatinib 0.031 | [3] -0.026 | [4] 0.027 | [5] 0.041 | tipifarnib 0 | mubritinib -0.019 | [6] -0.044 | [7] -0.016 | [8] -0.027 | [9] -0.018 | entinostat 0.065 | vorinostat -0.028 | citarinostat -0.021 | silmitasertib 0.055 | [10] 0.055 | [11] -0.068

CCT5 (UniProt P48643)
inactive: bafetinib 0.035 | [1] 0.051 | nilotinib -0.04 | [2] 0.016 | dasatinib 0.012 | [3] 0.003 | [4] 0.014 | [5] 0.009 | tipifarnib 0.017 | mubritinib -0.008 | [6] 0.029 | [7] 0.014 | [8] 0.006 | [9] 0.047 | entinostat 0.01 | vorinostat 0.038 | citarinostat 0.021 | silmitasertib -0.025 | [10] 0.056 | [11] -0.036

CASC4 (UniProt Q6P4E1)
inactive: bafetinib -0.066 | [1] -0.038 | nilotinib 0.018 | [2] -0.015 | dasatinib 0.028 | [3] 0.034 | [4] -0.118 | [5] 0.105 | tipifarnib 0.056 | mubritinib 0.012 | [6] -0.002 | [7] -0.005 | [8] -0.012 | [9] 0.01 | entinostat -0.026 | vorinostat -0.013 | citarinostat 0.037 | silmitasertib 0.025 | [10] -0.024 | [11] -0.017

CCDC134 (UniProt Q9H6E4)
inactive: bafetinib -0.025 | [1] -0.003 | nilotinib -0.018 | [2] 0.038 | dasatinib 0.11 | [3] -0.081 | [4] -0.065 | [5] 0.046 | tipifarnib 0.031 | mubritinib -0.024 | [6] -0.016 | [7] 0.025 | [8] -0.076 | [9] 0.004 | entinostat 0.017 | vorinostat -0.009 | citarinostat 0.05 | silmitasertib 0.035 | [10] 0.014 | [11] -0.046

CCDC47 (UniProt Q96A33)
inactive: bafetinib -0.065 | [1] -0.022 | nilotinib -0.056 | [2] 0.011 | dasatinib -0.072 | [3] -0.005 | [4] 0.03 | [5] -0.013 | tipifarnib -0.061 | mubritinib 0.032 | [6] -0.024 | [7] -0.049 | [8] -0.081 | [9] -0.088 | entinostat -0.014 | vorinostat 0.023 | citarinostat -0.019 | silmitasertib -0.006 | [10] -0.084 | [11] 0.021
